From article PMC7192582
Results are given in words; binding and its absence hold for the method and conditions named. In cells and extracts the contact can be indirect. Some entries that bind do so weakly or less than the wild type.

Amino acid sequences for entries named in this document (tags omitted).
UniProt O09106: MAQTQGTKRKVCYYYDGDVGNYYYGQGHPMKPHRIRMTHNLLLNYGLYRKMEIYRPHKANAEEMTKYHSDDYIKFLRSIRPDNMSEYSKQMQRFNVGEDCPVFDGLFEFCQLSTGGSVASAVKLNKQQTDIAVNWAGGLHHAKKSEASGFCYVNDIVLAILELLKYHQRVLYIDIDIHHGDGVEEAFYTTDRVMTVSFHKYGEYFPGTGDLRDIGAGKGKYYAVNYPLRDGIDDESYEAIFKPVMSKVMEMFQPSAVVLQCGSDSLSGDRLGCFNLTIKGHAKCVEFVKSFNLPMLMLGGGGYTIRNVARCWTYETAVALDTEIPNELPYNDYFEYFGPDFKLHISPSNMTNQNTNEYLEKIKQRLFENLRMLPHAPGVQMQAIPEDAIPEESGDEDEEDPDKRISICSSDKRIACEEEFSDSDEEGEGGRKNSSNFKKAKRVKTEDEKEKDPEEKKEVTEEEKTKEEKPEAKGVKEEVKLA
UniProt P70288: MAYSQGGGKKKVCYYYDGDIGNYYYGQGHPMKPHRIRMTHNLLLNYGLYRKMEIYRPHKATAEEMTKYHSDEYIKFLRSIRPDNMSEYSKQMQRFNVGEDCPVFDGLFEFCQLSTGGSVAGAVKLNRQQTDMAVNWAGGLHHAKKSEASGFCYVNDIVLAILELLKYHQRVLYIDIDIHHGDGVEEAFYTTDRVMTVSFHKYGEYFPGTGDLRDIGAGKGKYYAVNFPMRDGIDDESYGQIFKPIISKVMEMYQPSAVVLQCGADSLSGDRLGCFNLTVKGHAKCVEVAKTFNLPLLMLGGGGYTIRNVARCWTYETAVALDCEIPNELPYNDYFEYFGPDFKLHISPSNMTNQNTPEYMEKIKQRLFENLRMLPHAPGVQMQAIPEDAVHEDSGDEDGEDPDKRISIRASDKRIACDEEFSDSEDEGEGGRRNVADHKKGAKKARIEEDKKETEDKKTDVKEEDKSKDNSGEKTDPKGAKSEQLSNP

Target: T1, DNTTIP1 (mouse (endogenous in mESCs)) (UniProt Q99LB0)
T1 sequence: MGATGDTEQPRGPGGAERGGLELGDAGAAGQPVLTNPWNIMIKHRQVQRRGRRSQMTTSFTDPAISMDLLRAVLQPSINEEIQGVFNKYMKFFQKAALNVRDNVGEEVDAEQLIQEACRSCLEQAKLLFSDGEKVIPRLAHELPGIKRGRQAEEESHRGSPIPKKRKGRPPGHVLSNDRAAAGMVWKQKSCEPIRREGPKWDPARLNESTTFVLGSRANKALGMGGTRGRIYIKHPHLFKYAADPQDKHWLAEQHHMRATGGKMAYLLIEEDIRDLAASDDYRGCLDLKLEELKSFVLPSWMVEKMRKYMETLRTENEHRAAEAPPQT
Assay: co-IP; IP with ELMSAN1 or DNTTIP1 antibody (IgG as control) on Dynabeads Protein G from nuclear extracts of WT, Dnttip1 KO1 or Elmsan1 KO1 mESCs; Lysis Buffer 2 (20 mM HEPES pH 7.9, 420 mM NaCl), 4°C overnight; WB for MiDAC components

Substance | binding
HDAC1 (from UniProt O09106 1-482) (enzyme) | binds
HDAC2 (from UniProt P70288 1-488) (enzyme) | no binding
